Measured values as given in paper PMC5596575.
No constants are given. Whether binding was seen depends on the method and setting. Binding seen in cells or lysates may run through a third protein. Some binding calls cover weakened binding; strength is not graded here.

Protein sequences, listed by entry. Tags and fused reporters are not part of them. Residues count along the entry.
UniProt P22366: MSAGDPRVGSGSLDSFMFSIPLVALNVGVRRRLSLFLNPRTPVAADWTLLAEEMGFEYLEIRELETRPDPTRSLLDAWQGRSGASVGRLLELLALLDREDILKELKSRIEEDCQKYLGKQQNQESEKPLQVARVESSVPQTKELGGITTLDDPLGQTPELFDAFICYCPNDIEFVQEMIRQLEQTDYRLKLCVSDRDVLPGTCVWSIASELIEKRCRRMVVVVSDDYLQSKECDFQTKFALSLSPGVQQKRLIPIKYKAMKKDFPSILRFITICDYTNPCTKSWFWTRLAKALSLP
UniProt Q9QUK6, residues 26-835: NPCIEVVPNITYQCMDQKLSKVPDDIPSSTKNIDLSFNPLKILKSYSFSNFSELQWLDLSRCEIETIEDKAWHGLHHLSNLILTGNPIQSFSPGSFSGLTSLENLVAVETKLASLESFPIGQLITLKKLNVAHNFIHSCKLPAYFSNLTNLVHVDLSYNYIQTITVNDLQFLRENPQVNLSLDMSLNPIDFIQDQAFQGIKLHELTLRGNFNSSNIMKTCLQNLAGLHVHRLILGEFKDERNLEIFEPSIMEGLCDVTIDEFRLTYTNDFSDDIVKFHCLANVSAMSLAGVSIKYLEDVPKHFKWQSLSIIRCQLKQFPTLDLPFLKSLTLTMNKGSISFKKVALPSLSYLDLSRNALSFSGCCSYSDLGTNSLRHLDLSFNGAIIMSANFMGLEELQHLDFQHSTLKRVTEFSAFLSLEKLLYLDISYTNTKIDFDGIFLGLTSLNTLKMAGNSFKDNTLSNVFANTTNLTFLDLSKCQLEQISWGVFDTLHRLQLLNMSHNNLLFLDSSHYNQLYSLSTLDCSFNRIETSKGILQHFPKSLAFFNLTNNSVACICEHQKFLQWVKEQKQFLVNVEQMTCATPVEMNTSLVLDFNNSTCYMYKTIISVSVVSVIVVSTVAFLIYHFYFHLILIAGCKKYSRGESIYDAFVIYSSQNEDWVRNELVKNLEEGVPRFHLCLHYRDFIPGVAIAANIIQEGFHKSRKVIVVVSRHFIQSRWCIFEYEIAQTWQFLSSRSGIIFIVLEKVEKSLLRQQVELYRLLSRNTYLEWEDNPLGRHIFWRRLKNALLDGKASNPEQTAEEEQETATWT

Biological target: MyD88, endogenous in RAW264.7 cells (mouse (endogenous in RAW264.7)) (UniProt P22366)
Assay: co-IP; RAW264.7 cells, endogenous proteins; with or without TTN (4 μg/ml, 1 h) before LPS (1 μg/ml, 2 h); 800 μg protein in IP lysis buffer precipitated with MyD88 antibody on magnetic beads; blots with anti-MyD88 and anti-TLR4

Toll-like receptor 4 (TLR4), endogenous in RAW264.7 cells (from UniProt Q9QUK6 26-835)
binding: binds
